Assay results published in patent publication US6730705B1, “Alkoximino acetic acid amides” (Bayer Aktiengesellschaft, priority 1995, dated 2004).
Some results were stated once for a whole list of compounds, not compound by compound. At least one structure is not confirmed: it was looked up by name or label, or the drawing left a doubt.

The compounds below were run on Phytophthora infestans. Details: tomato plants, protective spray, active compound concentration 100 ppm in the spray liquor, evaluation 6 days after inoculation.
Type: in vivo

| Compound | degree of action |
| --- | --- |
| CO/N=C(/C(=O)NCCc1ccc(OC)c(OC)c1)c1ccc(Cl)cc1 [Compound 24] | more than 80% |
| CON=C(C(=O)NCCc1ccc(OC)c(OC)c1)c1ccc(C)cc1 (mixture of isomers) [Compound 41] | more than 80% |
| CO/N=C(/C(=O)NCCc1ccc(OC)c(OC)c1)c1ccc(C)cc1 [Compound 42] | more than 80% |
